PubChem BioAssay AID1259424 | University of Nebraska Medical Center – 2018
Test: 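Rank knockdowns across the genome by resemblance to the KSR1 depletion profile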 (primary screen). Cells: human HCT116 colon cancer cells. Reagent: siRNA pool against human genes, 50 nM. Measurement: 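Six signature mRNAs by branched-DNA multiplex assay, scaled to two housekeeping genes and non-targeting median, log2; matched to mean KSR1 knockdown profile by Pearson correlation and euclidean distance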. Scale: mean correlation with KSR1 profile and KSR1 correlation: higher = expression change more like KSR1 knockdown; mean distance from KSR1 profile: higher = expression change less like KSR1 knockdown.
The deposit covers about 14,000 reagents; below is an unselected part. 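Higher correlation or smaller distance means closer resemblance to KSR1 loss; control wells, including KSR1 knockdowns, recur on many plates.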 The record does not give: the time to read-out.

target | mean correlation with KSR1 profile | mean distance from KSR1 profile | KSR1 correlation, replicate 1 | KSR1 correlation, replicate 2 | KSR1 correlation, replicate 3
VPS51 | -0.143 | 2.7 | -0.273 | 0.029 | -0.351
TET1 | -0.369 | 2.86 | -0.62 | -0.315 | -0.259
MUC4 | -0.394 | 3.47 | -0.0997 | -0.648 | -0.287
BACE2 | 0.103 | 1.8 | 0.414 | -0.249 | 0.219
FBXW9 | 0.652 | 1.84 | 0.532 | 0.695 | 0.661
LGR6 | -0.159 | 1.24 | -0.876 | 0.0753 | 0.08
MROH9 | 0.64 | 1.25 | 0.602 | 0.686 | 0.307
NCOA2 | -0.529 | 2.28 | -0.469 | -0.316 | -0.739
GORASP2 | 0.00153 | 1.9 | 0.299 | -0.166 | -0.105
GFOD3P | -0.698 | 4.4 | 0.988 | -0.524 | 0.361
GGT5 | 0.466 | 2.1 | 0.337 | 0.309 | 0.588
MT-ND4 | -0.77 | 3.3 | -0.618 | -0.89 | -0.794
NR4A3 | 0.288 | 2.74 | 0.406 | 0.245 | 0.18
NAT14 | 0.486 | 1.12 | 0.352 | 0.68 | 0.41
IGF1R | 0.0959 | 3.21 | 0.275 | 0.17 | -0.00885
REPS1 | 0.292 | 1.45 | 0.684 | -0.666 | -0.157
CCR7 | 0.469 | 2.58 | 0.484 | 0.499 | 0.261
GAL3ST2 | -0.434 | 4.76 | -0.245 | -0.423 | -0.557
IGFBP3 | -0.176 | 2.29 | -0.232 | -0.189 | 0.121
MC1R | 0.934 | 1.21 | 0.985 | 0.864 | 0.934
SPON2 | -0.234 | 2.31 | -0.127 | -0.333 | -0.265
LCAT | -0.216 | 1.94 | -0.102 | -0.207 | -0.265
CSF2RB | 0.0157 | 1.88 | -0.00358 | -0.25 | 0.164
STAR | -0.591 | 2.03 | -0.709 | -0.564 | -0.613
ARMC9 | 0.338 | 3.04 | 0.205 | 0.326 | 0.382
GPAM | 0.0517 | 1.32 | 0.0265 | 0.0551 | 0.0801
FASTKD5 | 0.53 | 1.93 | 0.501 | 0.545 | 0.566
SLC13A1 | 0.448 | 1.03 | 0.371 | 0.368 | 0.538
HTR3C | 0.346 | 1.33 | 0.374 | 0.359 | 0.255
PDYN | -0.12 | 0.906 | 0.274 | 0.757 | -0.521
NDUFA12 | 0.0886 | 1.68 | -0.144 | -0.0193 | 0.293
DLK2 | -0.283 | 5.06 | -0.373 | -0.463 | -0.237
LINC01587 | -0.19 | 1.3 | -0.249 | -0.363 | -0.0202
TBC1D10B | -0.116 | 2.85 | 0.222 | -0.286 | -0.103
G6PC2 | 0.0352 | 1.68 | -0.193 | 0.0704 | -0.122
FDXR | -0.0598 | 2.16 | -0.054 | 0.237 | -0.0521
SARS1 | 0.178 | 2.01 | 0.0679 | -0.0177 | 0.419
EHBP1 | -0.574 | 3.01 | -0.514 | -0.523 | -0.516
NDN | 0.763 | 1.91 | 0.638 | 0.697 | 0.699
APPL1 | 0.344 | 3.14 | 0.357 | 0.285 | 0.0382
THYN1 | 0.588 | 1.95 | 0.12 | 0.218 | 0.479
TBPL1 | -0.225 | 1.74 | -0.185 | -0.187 | -0.0392
SULT2A1 | -0.562 | 2.06 | -0.504 | -0.478 | 0.172
TMEM11 | 0.777 | 1.91 | 0.765 | 0.758 | 0.807
ZNF566 | 0.944 | 0.674 | 0.888 | 0.858 | 0.924
LOC54073 (retired record) | -0.498 | 3.85 | -0.458 | -0.537 | -0.477
TSHZ1 | 0.168 | 2.84 | -0.0129 | 0.495 | 0.047
DMRTC1 | -0.667 | 2.8 | -0.52 | -0.717 | -0.668
SLC35D2 | -0.942 | 1.5 | -0.851 | -0.574 | -0.89
KIRREL1 | -0.311 | 3.44 | -0.215 | -0.2 | -0.459

Part of the list above, set out differently.
target,mean correlation with KSR1 profile,mean distance from KSR1 profile,"KSR1 correlation, replicate 1","KSR1 correlation, replicate 2","KSR1 correlation, replicate 3"
FDXR,-0.0598,2.16,-0.054,0.237,-0.0521
SARS1,0.178,2.01,0.0679,-0.0177,0.419
EHBP1,-0.574,3.01,-0.514,-0.523,-0.516
